At least one structure is not confirmed: it was looked up by name or label, or the drawing left a doubt.
Biological target: T1, KfuRS (MbPylRS mutant) (Methanosarcina barkeri, UniProt Q6WRH6, C313F/L274A/Y349F)
T1 construct: the full-length MbPylRS gene fragment was obtained by overlapping individual DNA fragments from the PCR; expressed in transfected cells; host or cells: E. coli DH10B
Assay: sfGFP150TAG fluorescence assay of KfuRS incorporation in E. coli
Format: cell-based
Details: 1 mM Kfu vs 1 mM Kcr

Chains of the proteins cited; added tags and fusions are not shown.
UniProt Q6WRH6, whole entry L274A/C313F/Y349F: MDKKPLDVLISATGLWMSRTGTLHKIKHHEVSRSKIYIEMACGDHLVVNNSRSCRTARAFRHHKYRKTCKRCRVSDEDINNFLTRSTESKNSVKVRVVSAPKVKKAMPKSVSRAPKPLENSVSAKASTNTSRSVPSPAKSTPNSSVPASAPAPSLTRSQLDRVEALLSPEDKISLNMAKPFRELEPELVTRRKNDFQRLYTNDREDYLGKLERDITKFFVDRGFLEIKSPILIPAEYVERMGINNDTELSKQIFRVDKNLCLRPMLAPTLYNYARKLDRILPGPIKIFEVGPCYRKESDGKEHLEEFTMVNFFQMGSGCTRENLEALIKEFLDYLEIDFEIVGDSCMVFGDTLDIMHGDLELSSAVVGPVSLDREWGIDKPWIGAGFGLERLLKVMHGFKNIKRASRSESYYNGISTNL

N[C@@H](CCCCNC(=O)c1ccco1)C(=O)O [Kfu, 2-furancarbonyl lysine]
activity of KfuRS toward Kfu relative to Kcr (incorporation efficiency): 2.5 fold

Source: US20230272370A1, “GENETICALLY ENCODED YEATS DOMAIN PROBE AND APPLICATIONS THEREOF” (THE UNIVERSITY OF HONG KONG, priority 2020, published 2023)
